Laboratory results: the supplement of paper PMC11006884
This list holds what a sample rich in targets with a hit left over. This is a noisy data set. Only a part is listed here, and it is no random draw.

The chains behind the UniProt entries cited, without tags or fusion partners. Where a name states a change or a piece, a line headed by the entry shows the natural chain unless it says otherwise.
UniProt Q9HCU4: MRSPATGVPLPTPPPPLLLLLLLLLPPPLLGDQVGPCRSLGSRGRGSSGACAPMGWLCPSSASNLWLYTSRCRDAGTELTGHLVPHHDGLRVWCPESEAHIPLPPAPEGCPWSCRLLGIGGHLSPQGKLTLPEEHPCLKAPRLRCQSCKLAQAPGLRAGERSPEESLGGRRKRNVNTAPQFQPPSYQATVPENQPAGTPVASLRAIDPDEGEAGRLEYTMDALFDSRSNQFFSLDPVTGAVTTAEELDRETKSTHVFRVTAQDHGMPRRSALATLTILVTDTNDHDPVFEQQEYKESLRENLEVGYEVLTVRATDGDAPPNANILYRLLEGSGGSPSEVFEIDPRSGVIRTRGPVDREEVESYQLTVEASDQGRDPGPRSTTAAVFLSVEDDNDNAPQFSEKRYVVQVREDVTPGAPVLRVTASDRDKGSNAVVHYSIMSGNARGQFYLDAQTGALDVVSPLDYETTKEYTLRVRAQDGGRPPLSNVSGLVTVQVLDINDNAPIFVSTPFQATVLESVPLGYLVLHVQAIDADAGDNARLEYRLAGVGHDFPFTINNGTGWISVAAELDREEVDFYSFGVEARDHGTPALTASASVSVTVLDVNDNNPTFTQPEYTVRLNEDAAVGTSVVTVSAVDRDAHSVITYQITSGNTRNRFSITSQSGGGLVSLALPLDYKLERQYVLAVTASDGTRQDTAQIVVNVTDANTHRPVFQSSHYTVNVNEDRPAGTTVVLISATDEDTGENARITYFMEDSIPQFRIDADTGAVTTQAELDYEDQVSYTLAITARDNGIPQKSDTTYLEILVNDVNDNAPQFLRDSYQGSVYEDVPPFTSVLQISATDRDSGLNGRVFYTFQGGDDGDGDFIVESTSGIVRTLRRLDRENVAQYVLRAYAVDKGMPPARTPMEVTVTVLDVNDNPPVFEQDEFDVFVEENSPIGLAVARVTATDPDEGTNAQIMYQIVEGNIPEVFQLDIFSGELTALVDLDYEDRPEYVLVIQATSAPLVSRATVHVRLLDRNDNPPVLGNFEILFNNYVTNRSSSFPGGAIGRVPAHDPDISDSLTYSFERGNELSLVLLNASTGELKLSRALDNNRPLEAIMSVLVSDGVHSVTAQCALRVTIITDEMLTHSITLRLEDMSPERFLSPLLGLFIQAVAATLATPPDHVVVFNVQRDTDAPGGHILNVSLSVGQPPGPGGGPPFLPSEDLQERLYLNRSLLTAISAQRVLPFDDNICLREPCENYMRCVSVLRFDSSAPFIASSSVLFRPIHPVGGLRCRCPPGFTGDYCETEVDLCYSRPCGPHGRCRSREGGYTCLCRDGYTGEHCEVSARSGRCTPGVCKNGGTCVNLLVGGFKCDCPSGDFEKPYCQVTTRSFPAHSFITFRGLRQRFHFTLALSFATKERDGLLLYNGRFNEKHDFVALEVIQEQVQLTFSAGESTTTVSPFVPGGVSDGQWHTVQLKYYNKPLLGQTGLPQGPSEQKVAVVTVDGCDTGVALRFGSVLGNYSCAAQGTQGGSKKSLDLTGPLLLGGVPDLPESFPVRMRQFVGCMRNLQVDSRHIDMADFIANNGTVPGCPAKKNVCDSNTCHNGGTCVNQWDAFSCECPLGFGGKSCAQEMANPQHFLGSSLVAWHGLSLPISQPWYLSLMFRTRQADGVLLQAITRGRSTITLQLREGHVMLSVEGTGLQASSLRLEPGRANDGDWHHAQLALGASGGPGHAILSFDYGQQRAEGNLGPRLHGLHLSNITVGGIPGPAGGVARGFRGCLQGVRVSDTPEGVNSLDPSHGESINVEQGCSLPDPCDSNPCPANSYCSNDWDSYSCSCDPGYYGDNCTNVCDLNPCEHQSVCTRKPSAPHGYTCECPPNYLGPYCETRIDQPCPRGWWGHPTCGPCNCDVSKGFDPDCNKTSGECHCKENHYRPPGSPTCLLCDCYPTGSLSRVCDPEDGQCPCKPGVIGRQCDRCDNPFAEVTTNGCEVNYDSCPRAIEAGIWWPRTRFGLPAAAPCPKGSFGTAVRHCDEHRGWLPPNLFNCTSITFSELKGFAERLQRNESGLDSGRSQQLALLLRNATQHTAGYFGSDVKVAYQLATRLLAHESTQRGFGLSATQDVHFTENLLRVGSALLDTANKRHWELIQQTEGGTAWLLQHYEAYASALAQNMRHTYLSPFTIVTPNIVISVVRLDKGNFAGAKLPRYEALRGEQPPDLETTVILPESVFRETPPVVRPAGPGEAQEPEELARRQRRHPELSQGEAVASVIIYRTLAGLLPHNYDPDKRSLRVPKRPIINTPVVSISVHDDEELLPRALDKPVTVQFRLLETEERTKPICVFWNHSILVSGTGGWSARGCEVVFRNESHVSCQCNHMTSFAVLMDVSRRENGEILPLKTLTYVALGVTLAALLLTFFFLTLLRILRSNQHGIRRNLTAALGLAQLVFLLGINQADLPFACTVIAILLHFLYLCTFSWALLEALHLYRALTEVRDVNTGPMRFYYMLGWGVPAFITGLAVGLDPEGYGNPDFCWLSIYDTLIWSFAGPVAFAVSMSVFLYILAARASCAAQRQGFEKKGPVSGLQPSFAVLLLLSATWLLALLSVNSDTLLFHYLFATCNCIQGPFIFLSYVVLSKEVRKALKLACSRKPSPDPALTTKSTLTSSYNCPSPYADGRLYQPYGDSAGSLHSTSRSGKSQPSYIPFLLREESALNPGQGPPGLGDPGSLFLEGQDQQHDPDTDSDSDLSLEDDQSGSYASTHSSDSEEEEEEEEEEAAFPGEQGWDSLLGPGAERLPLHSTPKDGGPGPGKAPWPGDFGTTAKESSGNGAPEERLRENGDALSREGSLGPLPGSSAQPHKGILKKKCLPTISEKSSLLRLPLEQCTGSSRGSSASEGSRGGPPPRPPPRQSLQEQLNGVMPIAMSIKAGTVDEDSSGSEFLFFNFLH
UniProt Q9NR56: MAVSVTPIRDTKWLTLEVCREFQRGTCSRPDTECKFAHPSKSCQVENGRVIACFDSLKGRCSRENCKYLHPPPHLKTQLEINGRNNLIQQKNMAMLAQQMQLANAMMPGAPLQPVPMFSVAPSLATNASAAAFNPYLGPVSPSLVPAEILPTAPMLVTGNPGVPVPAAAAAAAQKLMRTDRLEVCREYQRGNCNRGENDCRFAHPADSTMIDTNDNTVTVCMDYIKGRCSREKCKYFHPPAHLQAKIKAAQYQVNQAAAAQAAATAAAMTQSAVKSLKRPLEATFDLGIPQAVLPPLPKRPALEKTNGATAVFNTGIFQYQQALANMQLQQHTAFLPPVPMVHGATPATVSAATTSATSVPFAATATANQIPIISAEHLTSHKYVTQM
UniProt Q9NRL3: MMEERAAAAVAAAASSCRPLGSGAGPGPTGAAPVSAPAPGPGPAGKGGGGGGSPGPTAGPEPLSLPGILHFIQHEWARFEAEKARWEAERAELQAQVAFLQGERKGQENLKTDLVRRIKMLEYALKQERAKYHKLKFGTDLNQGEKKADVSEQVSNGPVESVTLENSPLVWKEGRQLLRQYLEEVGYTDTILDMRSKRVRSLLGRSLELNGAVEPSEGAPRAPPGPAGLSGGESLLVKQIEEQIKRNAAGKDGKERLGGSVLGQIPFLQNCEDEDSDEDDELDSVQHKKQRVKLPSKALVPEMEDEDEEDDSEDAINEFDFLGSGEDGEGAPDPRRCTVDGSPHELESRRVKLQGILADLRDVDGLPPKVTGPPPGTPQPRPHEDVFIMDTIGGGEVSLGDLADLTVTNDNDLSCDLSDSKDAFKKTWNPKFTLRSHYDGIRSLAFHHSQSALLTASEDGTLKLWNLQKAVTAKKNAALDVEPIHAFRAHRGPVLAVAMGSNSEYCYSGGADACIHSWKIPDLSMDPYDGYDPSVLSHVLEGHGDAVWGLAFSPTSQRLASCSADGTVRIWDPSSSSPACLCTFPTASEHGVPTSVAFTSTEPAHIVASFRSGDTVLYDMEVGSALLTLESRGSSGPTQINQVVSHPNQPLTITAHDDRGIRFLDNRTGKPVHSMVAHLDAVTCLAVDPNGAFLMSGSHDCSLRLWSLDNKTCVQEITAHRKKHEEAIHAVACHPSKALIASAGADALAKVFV
UniProt Q9H307: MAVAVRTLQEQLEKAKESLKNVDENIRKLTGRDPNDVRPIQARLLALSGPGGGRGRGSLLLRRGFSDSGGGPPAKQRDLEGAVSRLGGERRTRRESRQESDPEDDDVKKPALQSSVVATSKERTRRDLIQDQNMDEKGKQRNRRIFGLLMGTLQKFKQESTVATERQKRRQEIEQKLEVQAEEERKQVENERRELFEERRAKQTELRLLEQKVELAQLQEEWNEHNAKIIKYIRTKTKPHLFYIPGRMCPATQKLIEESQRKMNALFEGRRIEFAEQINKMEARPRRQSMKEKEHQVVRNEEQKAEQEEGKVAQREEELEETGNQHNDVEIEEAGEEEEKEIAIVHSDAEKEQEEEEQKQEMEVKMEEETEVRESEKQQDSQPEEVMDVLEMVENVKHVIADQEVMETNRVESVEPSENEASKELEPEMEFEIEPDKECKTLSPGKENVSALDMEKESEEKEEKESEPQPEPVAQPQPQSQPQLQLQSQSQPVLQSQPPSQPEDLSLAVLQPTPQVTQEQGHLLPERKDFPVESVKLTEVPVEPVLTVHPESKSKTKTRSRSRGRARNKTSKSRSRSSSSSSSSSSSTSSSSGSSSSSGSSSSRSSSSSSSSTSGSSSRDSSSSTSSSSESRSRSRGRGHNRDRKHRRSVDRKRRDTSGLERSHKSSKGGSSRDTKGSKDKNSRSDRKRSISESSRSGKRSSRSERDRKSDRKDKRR
UniProt Q9HAS0: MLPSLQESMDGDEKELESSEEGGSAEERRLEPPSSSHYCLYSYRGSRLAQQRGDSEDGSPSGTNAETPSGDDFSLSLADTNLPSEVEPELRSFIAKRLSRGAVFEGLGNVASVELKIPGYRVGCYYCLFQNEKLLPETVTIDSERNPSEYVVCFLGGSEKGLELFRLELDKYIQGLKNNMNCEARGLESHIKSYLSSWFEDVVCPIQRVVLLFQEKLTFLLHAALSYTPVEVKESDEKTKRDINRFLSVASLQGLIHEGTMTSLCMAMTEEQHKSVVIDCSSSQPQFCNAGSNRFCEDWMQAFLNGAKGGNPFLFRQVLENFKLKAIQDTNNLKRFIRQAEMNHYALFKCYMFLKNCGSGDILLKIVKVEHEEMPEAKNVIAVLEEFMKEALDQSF
UniProt Q9H9L3: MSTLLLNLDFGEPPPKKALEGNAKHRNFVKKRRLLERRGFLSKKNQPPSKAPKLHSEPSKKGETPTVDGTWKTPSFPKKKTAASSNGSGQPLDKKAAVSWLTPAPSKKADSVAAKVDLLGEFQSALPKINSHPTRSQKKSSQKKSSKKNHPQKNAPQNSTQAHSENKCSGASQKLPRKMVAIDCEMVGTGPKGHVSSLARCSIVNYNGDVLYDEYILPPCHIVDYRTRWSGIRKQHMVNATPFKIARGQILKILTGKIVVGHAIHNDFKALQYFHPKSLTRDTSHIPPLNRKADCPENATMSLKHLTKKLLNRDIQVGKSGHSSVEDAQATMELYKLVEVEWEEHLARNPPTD
UniProt Q9NRM2: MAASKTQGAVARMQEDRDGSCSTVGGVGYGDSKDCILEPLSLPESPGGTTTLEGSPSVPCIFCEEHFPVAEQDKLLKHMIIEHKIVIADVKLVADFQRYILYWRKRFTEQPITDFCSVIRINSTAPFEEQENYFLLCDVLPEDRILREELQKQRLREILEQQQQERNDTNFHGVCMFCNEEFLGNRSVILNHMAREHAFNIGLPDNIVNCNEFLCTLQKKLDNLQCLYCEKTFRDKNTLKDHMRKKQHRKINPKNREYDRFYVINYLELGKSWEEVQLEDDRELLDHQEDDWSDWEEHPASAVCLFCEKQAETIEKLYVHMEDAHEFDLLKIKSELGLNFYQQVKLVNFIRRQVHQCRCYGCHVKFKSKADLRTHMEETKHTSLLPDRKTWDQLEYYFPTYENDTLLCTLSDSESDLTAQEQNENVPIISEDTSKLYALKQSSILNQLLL
UniProt Q9H9F9, whole entry: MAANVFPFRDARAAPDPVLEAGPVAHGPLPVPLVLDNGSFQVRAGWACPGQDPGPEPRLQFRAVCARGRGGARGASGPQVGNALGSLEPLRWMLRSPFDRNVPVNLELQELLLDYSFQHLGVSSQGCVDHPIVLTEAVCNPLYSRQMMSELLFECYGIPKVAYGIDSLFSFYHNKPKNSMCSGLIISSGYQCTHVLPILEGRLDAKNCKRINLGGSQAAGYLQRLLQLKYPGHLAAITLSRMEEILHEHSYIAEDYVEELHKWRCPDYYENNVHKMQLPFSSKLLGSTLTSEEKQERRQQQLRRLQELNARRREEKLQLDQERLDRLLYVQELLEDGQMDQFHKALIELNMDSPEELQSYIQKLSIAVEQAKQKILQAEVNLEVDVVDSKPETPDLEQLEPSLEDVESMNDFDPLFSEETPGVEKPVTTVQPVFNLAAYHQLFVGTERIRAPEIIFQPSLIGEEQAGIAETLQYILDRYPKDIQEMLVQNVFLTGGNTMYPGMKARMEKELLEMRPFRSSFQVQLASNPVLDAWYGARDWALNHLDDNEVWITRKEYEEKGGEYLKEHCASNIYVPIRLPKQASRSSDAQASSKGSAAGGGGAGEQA

Each target was assayed with COC(=O)/C=C/c1ccccc1 [methyl cinnamate] (assay: log2 ratio of iodoacetamide-alkyne labeling of the cysteine site, DMSO over compound (competition); higher = stronger covalent engagement of the cysteine by the compound, active = 1 or more). Settings: 500 µM; treatment time 1 h; system: HEK293T cell lysate.
Method in brief: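 For each cysteine, the log2 competition ratio is mean control-channel reporter intensity over mean compound-channel reporter intensity. HEK293T lysate (2 mg/mL) was exposed to vehicle or electrophile (500 µM, 1 h, ambient temperature), labelled with iodoacetamide alkyne (1 h), clicked to sCIP-TMT reagents, digested overnight with trypsin at 37 °C, streptavidin-enriched and analysed by Orbitrap Eclipse LC-MS/MS with FAIMS and FragPipe. Cysteines quantified in only one of three replicates, each with duplicate channels, were excluded.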

log2 ratio of iodoacetamide-alkyne labeling, inactive:
ISYNA1 C380 (UniProt Q9NPH2) 0.0449
PPAN C391 (UniProt Q9NQ55) 0.177
RAVER2 C631 (UniProt Q9HCJ3) 0.239
DDX21 C378 (UniProt Q9NR30) 0.0722
CELSR2 C2646 (UniProt Q9HCU4) 0.267
MDN1 C43 (UniProt Q9NU22) 0.393
MBNL1 C27 (UniProt Q9NR56) 0.254
STRN4 C17 (UniProt Q9NRL3) 0.228
FARSB C548 (UniProt Q9NSD9) -0.0162
UniProt Q9NUP1_C211 0.169
BIRC6 C3404 (UniProt Q9NR09) 0.115
ACAD9 C179 (UniProt Q9H845) 0.0212
RMI1 C268 (UniProt Q9H9A7) 0.285
XPO5 C1044 (UniProt Q9HAV4) 0.313
MDN1 C3528 (UniProt Q9NU22) 0.048
PNN C439 (UniProt Q9H307) 0.00011
C17orf75 C296 (UniProt Q9HAS0) 0.59
ISG20L2 C220 (UniProt Q9H9L3) -0.0878
UNC45A C384 (UniProt Q9H3U1) -0.0492
GOLPH3L C70 (UniProt Q9H4A5) 0.151
GOPC C408 (UniProt Q9HD26) 0.246
ATP13A1 C336 (UniProt Q9HD20) 0.108
XAB2 C225 (UniProt Q9HCS7) 0.438
WDR26 C656 (UniProt Q9H7D7) 0.159
MRPL44 C53 (UniProt Q9H9J2) -0.707
PREB C128 (UniProt Q9HCU5) 0.175
STRN4 C337 (UniProt Q9NRL3) 0.272
UniProt Q9H974_C324 0.265
PNPLA8 C714 (UniProt Q9NP80) 0.222
ZNF277 C137 (UniProt Q9NRM2) 0.136
PNN C249 (UniProt Q9H307) 0.132
UniProt Q9H773_C162 0.0811
ACTR5 C48 (UniProt Q9H9F9) 0.0257
STRN4 C562 (UniProt Q9NRL3) 0.244
DSN1 C355 (UniProt Q9H410) 0.386
TUBB1 C211 (UniProt Q9H4B7) -0.0987
RDH14 C97 (UniProt Q9HBH5) 0.171

Copied from the entries so far (2 entries):
log2 ratio of iodoacetamide-alkyne labeling, inactive:
TUBB1 C211 (UniProt Q9H4B7) -0.0987
RDH14 C97 (UniProt Q9HBH5) 0.171
